The values below are quoted from earlier work in publication PMC3401593 (Journal of Pharmaceutical Sciences, 2009).

The conditions of this series: cited from earlier work.

Take `CN1CC[C@]23c4c5ccc(O)c4O[C@H]2[C@@H](O)C=C[C@H]3[C@H]1C5` [morphine]: the “Brain penetration enhancement in mdr1a (−/−) mice” value is listed as 1.7 fold.
